The record followed here is PubChem BioAssay AID2685 (National Center for Advancing Translational Sciences (NCATS), 2010).

This is one part of the list. These are further read-outs of the screen, such as a control signal, another cell line or another target. No call is given for them. The list favours compounds with an active or inconclusive main result. Words in brackets tell the shape of the fitted curve; partial curves, single points and poor fits give uncertain potencies.

The nature of this assay: qHTS Assay for Lipid Storage Modulators in Drosophila S3 Cells.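 As to cell number change: cells counted by Cell Tracker Red CMTPX staining in the red channel.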 Particulars: BODIPY lipid droplet fluorescence, 18-24 h; for cell number change: measured here: cell count max response, cells fed with added oleic acid. Put shortly:
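Drosophila S3 cells loaded with oleic acid (400 uM, as added) and compounds at several concentrations; lipid droplets imaged by 488-nm laser-scanning cytometry, 500–530 nm intensity and object ratio to cell channel. Percent activity normalized to 20 uM Triacsin C.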
(In general: In qHTS, concentration-response curves come from the screen itself.)

[1] abbreviates: measured here: lipid fluorescence (Fed channel) AC50, cells fed with added oleic acid.
The mark [2] stands for this setting: measured here: cell number channel AC50, cells fed with added oleic acid.

What is called AC50 is the concentration giving half of the maximal activity seen.

With `O=C(Cn1cnc([N+](=O)[O-])c1)NCc1ccc(F)cc1`, the cell number change was -14.9%. Further, the AC50 under setting [1] is 6.51 µM [rising, single point].

In the case of `Nc1nc(-c2ccc(Cl)cc2)nn1C(=O)c1cccs1`, the cell number change came to 42.7%. Moreover, the AC50 under setting [2] was 18.4 µM [rising, single point].

With `COc1ccc(NC(=O)NCCc2c[nH]c3ccccc23)c(OC)c1`, the cell number change worked out at 18.9%.

On to `Cc1cc(C)c2cccc(N)c2n1`, for which the cell number change amounted to 5.6%. Moreover, the AC50 under setting [1] is 0.82 µM [falling, full curve, poor fit].

Take `Cc1ccc(NC(=O)CC2OC(=O)c3ccccc32)cc1S(=O)(=O)N1CCCCCC1` (configuration not stated): the cell number change was found to be 24%. Under setting [2], the AC50 was 0.146 µM [falling, full curve, poor fit].

With `CC(=O)N1CC2([N+](=O)[O-])CN(C(C)=O)CC([N+](=O)[O-])(C1)C2(C)C`, the cell number change stood at 44%. Moreover, the AC50 under setting [2] is 20.6 µM [rising, single point].

For the compound `CC(=O)NC(CC(=O)O)C(=O)O` (configuration not stated), the cell number change is -15.6%. The AC50 under setting [1] is 3.66 µM [rising, single point].

As for `COc1ccccc1/C=C/C(=O)/C=C/c1ccccc1O`, the cell number change was determined as 1.49%. The concentration at half-maximal activity (AC50) under setting [1] was 29.1 µM [falling, single point].

As for `Cc1ccccc1C(=O)Nc1c(C)[nH]c(=O)[nH]c1=O`, the cell number change was 13.9%.

As for `Cc1cccc(C)c1NC(=O)C(Cl)=C(Cl)Cl`, the cell number change is 10.1%.

Turning to `CC(C)CNC(=O)Nc1ccccc1F`, the cell number change was found to be 163%. Under setting [2], the AC50 was 14.6 µM [rising, partial curve]. Further, under setting [1], the AC50 was 16.4 µM [rising, partial curve].

For `Cc1cc(SCC(=O)OCC(=O)NC(C)c2ccccc2)c(C)cc1Br` (configuration not stated), the cell number change is -83.3%. Further, the AC50 under setting [2] is 18.4 µM [falling, single point].

`CC(C)(C)C(=O)CNCC(=O)C(C)(C)C`: the cell number change was -76.8%. Besides, the AC50 under setting [2] is 32.6 µM [falling, partial curve, poor fit]. Besides, under setting [1], the AC50 was 6.51 µM [falling, partial curve, poor fit].

With `CC(C)OC(=O)c1cc2c(ccn2-c2ccc(F)cc2)n1CC(=O)N1CCN(C(=O)c2ccco2)CC1`, the cell number change is -27%.

Take `Cc1ccc(C)c(S(=O)(=O)n2cnc3ccccc32)c1`: the cell number change amounted to 3.52%.

With `O=C(Nc1ccc(S(=O)(=O)N2CCOCC2)cc1)c1ccc([N+](=O)[O-])s1`, the cell number change was -36.4%. Moreover, the AC50 under setting [2] was 2.31 µM [falling, full curve]. Besides, the AC50 under setting [1] was 20.6 µM [falling, partial curve, poor fit].

Take `CCc1ccc(OC(=O)CN2C(=O)c3ccccc3C2=O)cc1`: the cell number change amounted to 3.23%.

As for `Cn1c(=O)[nH]c(=O)c2c1nc(Br)n2CCCSc1nc2ccccc2o1`, the cell number change was 94%. Besides, under setting [2], the AC50 was 3.26 µM [rising, partial curve]. Besides, the AC50 under setting [1] was 2.91 µM [rising, partial curve].

Take `Cc1cccc(N2C(=O)N3[C@H](c4ccc(F)cc4)[C@@H]4C(=O)N(C5CCCCC5)C(=O)[C@@H]4[C@]3(Cc3ccccc3)C2=O)c1`: the cell number change is 27.8%. Besides, the AC50 under setting [1] was 3.26 µM [rising, full curve].

As for `NC(=O)c1ccc(NC(=O)COC(=O)CCCc2c[nH]c3ccccc23)cc1`, the cell number change is -33.6%. Further, the AC50 under setting [2] is 14.6 µM [falling, single point].

Turning to `Cc1ccccc1N(CC(=O)Nc1ccc(S(=O)(=O)N2CCOCC2)cc1)S(C)(=O)=O`, the cell number change is -16.5%. In addition, the AC50 under setting [1] was 5.17 µM [falling, partial curve, poor fit].

In the case of `Cc1ccc(N2C(=O)c3sc4nnc(C)c(=O)n4c3C2=O)cc1`, the AC50 under setting [2] is 0.58 µM [rising, single point].

In the case of `O=S(=O)(NCC1CCCO1)c1ccc(Br)cc1` (configuration not stated), the cell number change worked out at 1.05%. For the same compound, the AC50 under setting [1] was 6.51 µM [rising, single point].

For `O=C(CN1C(=O)NC2(CCCC2)C1=O)Nc1cc(Cl)ccc1N1CCCCC1`, the cell number change is -1.47%. Moreover, under setting [2], the AC50 is 0.00461 µM [rising, full curve, poor fit]. Also, under setting [1], the AC50 is 29.1 µM [falling, single point].

With `CCNc1nc(OC)nc(SCC(N)=O)n1`, the cell number change is 5.87%. Also, the AC50 under setting [1] is 0.651 µM [falling, partial curve, poor fit].

For `O=c1[nH]c(C2CCCN(S(=O)(=O)c3ccccc3F)C2)nc2c1nnn2Cc1ccccc1Cl` (configuration not stated), the cell number change came to 3.04%.

With `CCn1c2ccccc2c2cc(/C=N/NC(=O)c3ccccc3)ccc21`, the cell number change was -1.69%. Under setting [1], the AC50 was 0.00517 µM [falling, full curve, poor fit].

Turning to `CCC1(C)Cc2[nH]c(=O)c(C#N)cc2CO1` (configuration not stated), the cell number change was found to be 4.72%. For the same compound, the AC50 under setting [1] is 9.2 µM [rising, partial curve].

On to `CC(Nn1cnnc1)c1cc(Cl)ccc1O` (configuration not stated), for which the cell number change stood at 10.9%. Moreover, under setting [1], the AC50 is 3.66 µM [falling, single point].

With `CCCOc1ccc(-c2c(C(=O)N/N=C/c3ccco3)nnn2-c2nonc2N)cc1`, the cell number change is 11%.

On to `CC1(C)COC(/C=C/c2cccc([N+](=O)[O-])c2)=N1`, for which the cell number change was -19.5%. For the same compound, the AC50 under setting [1] was 20.6 µM [falling, partial curve].

Regarding `Cc1nn(Cc2c(F)c(F)c(F)c(F)c2F)c(C)c1NC(=O)c1ccnn1C`, the cell number change was found to be 2.89%.

Turning to `COC(CNC(=O)C1CCC(CNS(=O)(=O)c2c(C)cc(C)cc2C)CC1)OC` (configuration not stated), the cell number change was -39%. In addition, the AC50 under setting [2] is 0.92 µM [falling, full curve]. The AC50 under setting [1] is 0.58 µM [falling, single point].

As to `CCCCNC(=O)N1CCCN(c2ccc(C#N)cn2)CC1`, the AC50 under setting [1] is 29.1 µM [rising, single point].

On to `COc1ccc(NC(=O)N2CCN(S(C)(=O)=O)CC2)cc1OC`, for which, under setting [1], the AC50 was 29.1 µM [rising, single point].

Regarding `COc1ccc(/C=C2\SC(=O)N(CC(=O)N(C)C3CCS(=O)(=O)C3)C2=O)cc1` (configuration not stated), the cell number change stood at 24.2%.

Consider `CCOC(=O)C(C(=O)OCC)=C1OC(=O)c2ccccc21`, for which the cell number change was found to be 8.25%. In addition, the AC50 under setting [1] is 2.59 µM [rising, single point].

For `Cc1cccc(NC(=O)c2ccc([N+](=O)[O-])o2)c1`, the AC50 under setting [1] is 18.4 µM [falling, partial curve].

With `CC(=O)c1cn(CC(=O)Nc2ccccc2Cl)c2ccccc12`, the cell number change came out at 6.45%. Moreover, the AC50 under setting [1] was 3.66 µM [falling, full curve].

For the compound `CCCCC(=O)Nc1ncc2c(n1)CC(C)(C)CC2=O`, the cell number change amounted to 17.6%.

For the compound `C[C@@H](CN=[N+]=[N-])CN1CC[C@H](C(C)(C)C)CCC1=O`, the cell number change is -12.9%. In addition, under setting [1], the AC50 is 29.1 µM [falling, single point].

As for `CC(C)COc1ccc(C(=O)Nc2ccc(NC(=O)c3ccco3)c(Cl)c2)cc1`, the AC50 is 2.59 µM [rising, partial curve] under setting [2] and 6.51 µM [rising, single point] under setting [1].

Consider `C/C(O)=C(/C=Nc1ccccc1)C(=O)Nc1ccccc1`, for which the cell number change was -11.5%.

With `Cc1ccnc(NC(=O)c2ccc(COc3c(F)c(F)cc(F)c3F)o2)c1`, the cell number change is -12.4%. Besides, under setting [1], the AC50 is 0.731 µM [falling, single point].

`COc1ccc(Cl)cc1S(=O)(=O)N1CCN(C)CC1`: the cell number change was -19.1%. Moreover, the AC50 under setting [1] was 0.0651 µM [rising, full curve, poor fit].

Take `CC(=O)c1ccc(NC(=O)[C@@]2(CC(=O)O)CC(/C=C/c3ccccc3)=NO2)cc1`: the cell number change was -23.9%.

With `Cn1cc(/C=N\O)nc2c(=O)n(-c3ccccc3)c(=O)nc1-2`, the cell number change was 0.493%. Moreover, under setting [1], the AC50 is 9.2 µM [falling, partial curve, poor fit].

For `COCCCNC(=O)CCn1c(=O)c2ccccc2n(CC(=O)Nc2ccc(C)cc2C)c1=O`, the cell number change is -33.8%. The AC50 under setting [1] is 29.1 µM [rising, partial curve, poor fit].

Turning to `COc1ccccc1C(=O)N1CCc2ccccc21`, the cell number change came to 1.08%.

Regarding `COc1ccc(S(=O)(=O)N2CCC(c3nc4ccccc4[nH]3)CC2)cc1`, the cell number change stood at 22.1%. Further, the AC50 under setting [1] was 5.17 µM [rising, partial curve].

With `COc1ccc(-c2ccnc(-c3ccc(OCCCF)cc3)n2)cc1`, the AC50 under setting [1] is 29.1 µM [rising, single point].

On to `CCCCCC1CC(CC(=O)Nc2ccc([N+](=O)[O-])cc2)OC1=O` (configuration not stated), for which the cell number change worked out at 15.4%. Under setting [1], the AC50 was 0.517 µM [falling, full curve, poor fit].

Turning to `Cc1ccnc(NC(=O)CS(=O)(=O)Cc2ccccc2)c1`, the cell number change stood at 25.2%.

With `CO/N=C/c1ccc(Oc2ccc(C)cc2)c([N+](=O)[O-])c1`, the cell number change turned out to be 24.8%. Moreover, the AC50 under setting [1] is 23.1 µM [rising, single point].

`COc1ccc(N/C(C)=C2/C(=O)C(=O)N(CCO)C2c2ccc(Br)cc2)cc1` (configuration not stated): the cell number change came to 10.1%. Moreover, under setting [1], the half-maximal activity concentration (AC50) is 0.731 µM [rising, full curve, poor fit].

Take `COC(=O)c1ccc(-n2c(C)cc(/C=N/n3cnnc3)c2C)cc1`: the cell number change was determined as 11.6%. Besides, under setting [1], the AC50 was 0.58 µM [falling, partial curve].

For the compound `COc1cc(/C=N/NC(=O)C(N)=O)cc(OC)c1O`, the cell number change was -14.5%.

Regarding `CCN(CC(=O)NCc1ccc(Cl)cc1)C(=O)c1cc2ccccc2o1`, the cell number change was determined as 24.6%.

Consider `Cc1nn(-c2ccccc2)c(N)c1Sc1cccc([N+](=O)[O-])c1`, for which the cell number change turned out to be 4.13%. For the same compound, the AC50 under setting [2] is 4.11 µM [falling, single point]. For the same compound, under setting [1], the AC50 was 0.731 µM [rising, partial curve].

On to `CN1CCN(CCCn2cnc3c(=O)oc4ccccc4c32)CC1`, for which the cell number change is -41.9%. Besides, the AC50 under setting [2] was 1.16 µM [falling, partial curve]. Under setting [1], the AC50 is 29.1 µM [falling, single point].

Consider `O=C1CC(Sc2nnnn2-c2ccccc2)C(=O)N1c1cccc(Cl)c1` (configuration not stated), for which the cell number change was -101%. Besides, the AC50 under setting [2] was 18.4 µM [falling, single point]. For the same compound, the AC50 under setting [1] is 29.1 µM [falling, single point].

Regarding `O=C(NCCN1CCOCC1)C1CCN(c2nc3ccccc3o2)CC1`, the cell number change came to 9.46%. In addition, the AC50 under setting [1] was 0.58 µM [rising, single point].

For `Cc1noc(C)c1COc1ccc(CC(=O)NCc2ccccc2)cc1`, the cell number change was found to be 56.1%. For the same compound, under setting [2], the AC50 is 2.06 µM [rising, partial curve, poor fit].

In the case of `O=C1N=C(N2CCCCC2)SC1=C1CCCCC1`, the cell number change was 14%. The AC50 under setting [1] is 2.91 µM [falling, single point].

As to `Cc1ccc(C(=O)NCCc2c[nH]c3ccccc23)c(C)c1`, the cell number change turned out to be 25.6%. Further, under setting [2], the AC50 is 0.058 µM [rising, full curve, poor fit].
